Results: US7998935B2, “Quinaldine based semisquaraines and squaraine dyes, process for preparation thereof and use thereof” (Council of Scientific and Industrial Research, priority 2006, dated 2011)
Some entries share one result that the patent states for a list of compounds.

Experiment: Absorption and fluorescence emission spectra (photophysical properties)
Assay type: physicochemical
Conditions: for absorption maxima: in DMSO; for emission maxima: in dimethyl sulfoxide (DMSO)
Excerpt: Semisquaraine of the general formula 1 in which a quinaldine moiety is linked to the squaric acid through methylene bridge have absorption around 480 nm with high molar extinction coefficient (4.0×10^4 M^−1 cm^−1) which depends on the substitution on the quanaldine unit. […] The absorption and fluorescence emission spectra of representative semisquaraine of the general formula 1 where X=OH, Y=H, Z=H, R^2=CH3 are shown in FIG. 1.
Similar to the semisquaraines the absorption spectra of these dyes were also dependent on the substitution on the quinaldine moiety. […] The presence of electron withdrawing groups in the quinaldine ring shifts the absorption maxima towards the blue region. […] The absorption and fluorescence emission spectra of representative symmetrical squaraine dye of the general formula 2, where X=I, Y=H, R^2=CH3 are shown in FIG. 2.
The absorption and fluorescence emission spectra of representative unsymmetrical squaraine dyes of the general formula 3, where X=C6H11O6, Y=H, Q=I, Z=H, R^2=CH3, are shown in FIG. 4.

SMILES	absorption maxima	emission maxima
CN1/C(=C/C2=C([O-])C(=C\c3ccc4cc(O[C@@H]5O[C@H](CO)[C@@H](O)[C@H](O)[C@H]5O)ccc4[n+]3C)/C2=O)C=Cc2cc(I)ccc21	745-755 nm	765-775 nm
CN1/C(=C/C2=C([O-])C(=C\c3ccc4cc(O)ccc4[n+]3C)/C2=O)C=Cc2cc(I)ccc21	745-755 nm	765-775 nm
